Changes are numbered by the printed parent chain. Names and notes keep the numbering of the source. No constants are given. Whether binding was seen depends on the method and setting. Binding seen in cells or lysates may run through a third protein. Some entries that bind do so weakly or less than the wild type.
B1: YdjC chitooligosaccharide deacetylase homolog (YDJC), wild type (enzyme, UniProt A8MPS7 1-323)
chain: MSRPRMRLVVTADDFGYCPRRDEGIVEAFLAGAVTSVSLLVNGAATESAAELARRHSIPTGLHANLSEGRPVGPARRGASSLLGPEGFFLGKMGFREAVAAGDVDLPQVREELEAQLSCFRELLGRAPTHADGHQHVHVLPGVCQVFAEALQAYGVRFTRLPLERGVGGCTWLEAPARAFACAVERDARAAVGPFSRHGLRWTDAFVGLSTCGRHMSAHRVSGALARVLEGTLAGHTLTAELMAHPGYPSVPPTGGCGEGPDAFSCSWERLHELRVLTAPTLRAQLAQDGVQLCALDDLDSKRPGEEVPCEPTLEPFLEPSLL
B2: YDJC D13A (deacetylase dominant negative mutant) (enzyme, UniProt A8MPS7 1-323)
chain: B1 chain with D13A

The chains behind the UniProt entries cited, without tags or fusion partners.
UniProt Q13042: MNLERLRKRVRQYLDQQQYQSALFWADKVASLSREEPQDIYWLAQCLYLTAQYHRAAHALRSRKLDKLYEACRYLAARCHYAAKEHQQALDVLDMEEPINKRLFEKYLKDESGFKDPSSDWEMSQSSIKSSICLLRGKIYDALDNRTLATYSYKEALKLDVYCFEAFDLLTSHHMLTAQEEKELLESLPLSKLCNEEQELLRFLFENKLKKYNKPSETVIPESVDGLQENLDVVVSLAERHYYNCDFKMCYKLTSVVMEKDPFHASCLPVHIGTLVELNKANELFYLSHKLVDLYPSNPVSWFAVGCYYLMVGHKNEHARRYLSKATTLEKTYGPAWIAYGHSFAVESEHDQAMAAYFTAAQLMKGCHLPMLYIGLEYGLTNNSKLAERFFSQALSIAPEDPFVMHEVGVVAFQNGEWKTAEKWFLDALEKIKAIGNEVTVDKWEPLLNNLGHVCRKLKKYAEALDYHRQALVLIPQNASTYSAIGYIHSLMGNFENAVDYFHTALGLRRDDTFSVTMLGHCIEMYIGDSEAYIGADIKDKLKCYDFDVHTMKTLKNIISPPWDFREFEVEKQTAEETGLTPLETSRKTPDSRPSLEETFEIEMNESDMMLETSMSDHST

Molecular target: CDC16 (UniProt Q13042)
Test: co-IP; extracts of transfected A549 cells, without SPC treatment; lysates incubated with anti-CDC16 or anti-YDJC antibody overnight at 4°C, protein A/G magnetic beads 1 h at room temperature, eluates analysed by Western blot

| Binder | binding |
| --- | --- |
| B1 | binds |
| B2 | binds |

Reference: paper PMC5955423
